The values that follow come from article PMC3127848, “Decreased expression of BRCA1 in SK-BR-3 cells is the result of aberrant activation of the GABP Beta promoter by an NRF-1-containing complex”.

The exact form of at least one protein or probe is not confirmed. Where cells or extracts were used, other partners may take part. Tags and fusion partners may be left off the protein sequences shown.

In this data set the target is T1, NRF-1 in MCF-7 nuclear extract (UniProt Q16656).
T1 sequence (looked up, limits assumed): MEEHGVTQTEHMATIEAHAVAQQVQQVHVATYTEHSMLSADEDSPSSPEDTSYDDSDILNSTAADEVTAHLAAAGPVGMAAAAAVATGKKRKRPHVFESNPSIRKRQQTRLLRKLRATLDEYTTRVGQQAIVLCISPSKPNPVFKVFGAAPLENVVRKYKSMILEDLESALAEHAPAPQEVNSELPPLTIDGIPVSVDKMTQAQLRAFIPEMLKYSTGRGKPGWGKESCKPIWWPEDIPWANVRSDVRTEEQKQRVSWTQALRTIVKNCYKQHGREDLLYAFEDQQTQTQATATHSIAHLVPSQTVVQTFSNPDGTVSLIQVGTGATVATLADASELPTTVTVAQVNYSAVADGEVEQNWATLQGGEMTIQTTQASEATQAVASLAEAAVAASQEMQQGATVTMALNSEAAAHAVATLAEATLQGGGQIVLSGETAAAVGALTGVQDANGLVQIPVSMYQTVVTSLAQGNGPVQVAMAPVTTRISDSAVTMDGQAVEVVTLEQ
Nature of the data set: EMSA supershift. To be noted: anti-NRF-1; 25 mM HEPES pH 7.6, 5 mM MgCl2, 34 mM KCl, 50 ug/mL poly dI:dC, 0.5 mg/mL BSA, on ice 15 min; 6% acrylamide 0.25x TBE gel; protein in an extract; label: 32P. A general note: In EMSA bound probe runs differently from free probe, usually more slowly.

“CTGCTGCGCAGGCGCCGGGC (double strand) [mT5]”: the binding result was “binds”.

As for “CTGTCGCGCAGGCGCCGGGC (double strand) [mT4]”, the binding result was “binds”.
